Results deposited as PubChem BioAssay AID1159578 (Peter MacCallum Cancer Centre, 2015).
The deposit covers about 18,000 reagents; this is a part drawn at random. About 1,030 of all reagents (5.7%) count as active. 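Inactive calls also include pools with fewer than 3300 nuclei, whose migration was not assessed.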 Raw values vary from plate to plate and are shown uncorrected. A number with no mark means an inactive call.

Test: 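Knock-downs that alter how fast lymphatic endothelial cells migrate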 (primary screen)
System: human lymphatic endothelial cells
Reagents: siRNA pool against human genes, 40 nM
Duration: 48 h after transfection
Detection: 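High-content imaging of dye-stained cells in a scratch assay measures filled wound area and nuclei per well; duplicate means given as ratio to mock and robust z-score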
Scale: migration robust z-score: higher = faster migration into the scratch; migration relative to mock: higher = more scratch area covered than mock; nuclei per well: higher = more cells in the well
Active means: 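Pools averaging fewer than 3300 nuclei are never called; remaining pools count as changed when migration robust z lies outside -2 to 2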
Meaning of the calls: active = migration changed; inactive = no migration change, or too few cells

target gene	migration robust z-score	migration class with cell-count check	migration relative to mock	nuclei per well, duplicate mean
FOXI2 (GeneID 399823)	0.43	migration z between -2 and 2; enough cells	1	5574
SLC44A5 (GeneID 204962)	2.19 (active)	migration z above 2; enough cells	1.46	7328
CPEB4 (GeneID 80315)	-0.82	migration z between -2 and 2; enough cells	0.67	5888
CNOT6 (GeneID 57472)	-0.96	migration z between -2 and 2; enough cells	0.64	4858
LAMA1 (GeneID 284217)	2.29 (active)	migration z above 2; enough cells	1.48	6106
KLK14 (GeneID 43847)	-0.57	migration z between -2 and 2; enough cells	0.7	4849
CWC25 (GeneID 54883)	0.48	migration z between -2 and 2; enough cells	1.01	5072

Reformatted: results already given.
| target gene | migration robust z-score | migration class with cell-count check | migration relative to mock | nuclei per well, duplicate mean |
| --- | --- | --- | --- | --- |
| FOXI2 (GeneID 399823) | 0.43 | migration z between -2 and 2; enough cells | 1 | 5574 |
| SLC44A5 (GeneID 204962) | 2.19 (active) | migration z above 2; enough cells | 1.46 | 7328 |
| CPEB4 (GeneID 80315) | -0.82 | migration z between -2 and 2; enough cells | 0.67 | 5888 |

Next records:
target gene	migration robust z-score	migration class with cell-count check	migration relative to mock	nuclei per well, duplicate mean
GARIN1A (GeneID 346653)	0.6	migration z between -2 and 2; enough cells	1.04	5232
NFE2L3 (GeneID 9603)	-1.61	migration z between -2 and 2; enough cells	0.5	5500
ZXDC (GeneID 79364)	-1.35	migration z between -2 and 2; enough cells	0.53	3478
SMCR8 (GeneID 140775)	0.11	migration z between -2 and 2; enough cells	0.9	3528
RRBP1 (GeneID 6238)	0.58	migration z between -2 and 2; enough cells	1.04	6612
SH3BP5 (GeneID 9467)	0.43	migration z between -2 and 2; enough cells	1	6083
EPB41 (GeneID 2035)	-0.68	migration z between -2 and 2; enough cells	0.71	5927
ORC3 (GeneID 23595)	-0.47	migration z between -2 and 2; enough cells	0.76	4844
ALOX5 (GeneID 240)	0.88	migration z between -2 and 2; enough cells	0.98	5214
UNC13A (GeneID 23025)	0.26	migration z between -2 and 2; enough cells	0.96	4846
ATPSCKMT (GeneID 134145)	-1.38	migration z between -2 and 2; enough cells	0.53	5761
FRMD3 (GeneID 257019)	-0.09	migration z between -2 and 2; enough cells	0.86	4082
STXBP5 (GeneID 134957)	0.14	migration z between -2 and 2; enough cells	0.92	5880
FMR1NB (GeneID 158521)	1.18	migration z between -2 and 2; enough cells	1.19	6402
KLHL17 (GeneID 339451)	1.34	migration z between -2 and 2; enough cells	1.23	5935
ERF (GeneID 2077)	0.57	migration z between -2 and 2; enough cells	0.92	5833
